At least one structure is not confirmed: it was looked up by name or label, or the drawing left a doubt.
Experiment: Clinical study comparing sn-1(3) MAG and fish oil (TAG) in delivering EPA under lipid maldigestion induced by XENICAL
Assay type: in vivo, humans
Settings: with XENICAL; relative to fish oil + XENICAL; p=0.0125 (FIG. 5)
Procedure: This clinical study compared the efficacy of sn-1(3) MAG and fish oil (TAG) in delivering EPA in humans under lipid maldigestion conditions induced by XENICAL® (ORLISTAT). The comparison was tested in volunteers treated with XENICAL® to induce lipid maldigestion or not treated with XENICAL® (ORLISTAT). The primary objective was to assess accretion of EPA in erythrocytes over 21 days when consumed as fish oil (TAG) or sn-1(3) MAG. The secondary objectives were to assess accretion of EPA in plasma over 21 days and also to assess the pharmacokinetics of EPA after an acute dose either in the form of sn-1(3) MAG or TAG (AUC in chylomicrons over 10 hours postprandial). See FIG. 4 that describes the clinical study timeline.

CC/C=C\C/C=C\C/C=C\C/C=C\C/C=C\CCCC(=O)OCC(O)CO (stereo not shown) [sn-1(3) MAG, sn-1(3)-monoeicosapentaenoylglycerol]
acute effect: EPA in chylomicrons, AUC over 10 hours postprandial: statistically significant

— patent US20180280337A1, “NUTRITIONAL COMPOSITIONS COMPRISING SN-1(3) MONOACYLGLYCEROLS FOR USE IN THE TREATMENT OF GROWTH DELAY IN INFANTS OR CHILDREN” (NESTEC S.A., priority 2014, published 2018)
